Measured values taken from patent publication US6652861B1, “Anti-HIV and anti-tumor peptides and truncated polypeptides of MAP30” (priority 1999, dated 2003).
Some entries share one result that the patent states for a list of compounds. Some compounds share one range, which may span the group rather than tell each member.

How the values were obtained:
Format in all cases: cell-based
[1] = system: human breast tumor cell line MDA-MB-231; test: Anti-tumor activity: proliferation of MDA-MB-231 cells by [3H] thymidine incorporation; settings: MDA231 cells; dose range 0.033 to 330 nM; read-out: EC50 (effective concentration at 50% inhibition), inhibition of tumor proliferation
Protocol: (§1) In FIG. 3A, anti-HIV activity was assayed by HIV core protein p24 expression in H9 cells (Lee-Huang et al., 1990 and Lee-Huang et al., 1991). […] Anti-tumor activity was determined by in vitro proliferation of human breast tumor MAD-MB-231 cell by [^3H] thymidine incorporation (Lee-Huang et al., 1999) and the average control value was about 1.88×10^5 cpm/ml (FIG. 3B). In FIG. 3C, the cytotoxic effect was measured by the MTS colorimetric assay (Lee-Huang et al., 1999), and in FIG. 3D, the ribosome-inactivation activity was determined by in vitro translation of globin message in a rabbit reticulocyte lysate system (Lee-Huang et al., 1990 and Lee-Huang et al., 1991) and the average control value was about 5.8×10^4 cpm/ml. In each assay, triplicates were carried in two independent experiments, and the results are normalized to values obtained in control assays. Standard deviations are indicated by error bars.
(§2) Anti-HIV activity was determined by inhibition on the expression of viral core protein p24 expression by RIA (Lee-Huang et al., 1990; Lee-Huang et al., 1991 and Lee-Huang et al., 1999). Anti-tumor activity was determined by the effects of the peptide fragments on the growth of human breast tumor cell line MDA-MB-231 by [^3H] thymidine incorporated (Lee-Huang et al., 1999 and Rybak et al., 1994). HIV-integrase inhibition was assayed by the three specific reactions catalyzed by the integrase, namely, 3′ processing (specific cleavage of the dinucleotide GT from the viral substrate HIV-LTR U3), strand transfer (integration) and disintegration (Lee-Huang et al., 1995). Topological inactivation was measured by the conversion of supercoiled HIV-LTR DNA to relaxed and linear forms (Huang et al., 1992). Ribosome inactivation was determined by the translation of globin message in a rabbit reticulocyte lysate system (Lee-Huang et al., 1990 and Lee-Huang et al., 1991).
(§3) To analyze the structural and activity relationship of the anti-HIV proteins, each of the homogeneous proteolytic fragments was assayed for anti-HIV and anti-tumor activities. […] Anti-HIV activity was measured by viral core protein p24 expression in HIV-1 infected H9 T lymphocytes by RIA (Lee-Huang et al., 1990 and Lee-Huang et al., 1991). Anti-tumor activity was measured by proliferation of human breast tumor MDA231 cells (Lee-Huang et al., 1999 and Rybak et al., 1994). […] No significant difference in the anti-HIV and anti-tumor activities was detected between these core fragments.

HIV-1 = test: Anti-HIV activity: viral core protein p24 expression in HIV-1 infected H9 T lymphocytes by RIA; settings: HIV-1 infected H9 cells, dose range 0.033 to 330 nM, read-out: EC50 (effective concentration at 50% inhibition), inhibition of viral production
Protocol: as §1, §2, §3

human spermatozoa = test: Sperm motility by counting
Protocol: Ten semen samples were randomly obtained form ten donors at the Andrology laboratory of the Department of Obstetrics and Gynecology at NYU Medical Center. All specimens were normal semen samples according to WHO guidelines. Each sample consisted of greater than or equal to 20 million motile sperm per milliliter. Sperm count and motility were determined by placing the sperm on a hackler chamber and assessing the samples under a 40× power microscopic field.
Each semen sample was washed two consecutive times in Ham's F-10 media. The washed sperm was spun to a pellet and then re-suspended in media to a concentration of 40 million spermatocytes per milliliter with at least 50% motility. Five microliters of sperm were then suspended in 100 microliters each of PBS, serial 10-fold dilutions of MAP30, or GAP31 or N-9 from 100 to 0.1 microg/ml. N-9 was used as a positive control. Motility and forward progression were assessed at each log concentration of the three compounds. The exposure time ranged form five minute to two hours.

Molecule	EC50 [1] [nM]	EC50 (HIV-1) [nM]	inhibition on sperm motility at 1 to 0.01 μg/ml (human spermatozoa) [%]
GLF22: GAP31 Lys-C fragment, 21-22 kDa, residues 11-200 of SEQ ID NO:2	0.2 to 0.4	0.2 to 0.4	–
GVF22: GAP31 V8 fragment, 21-22 kDa, residues 1-195 of SEQ ID NO:2	0.2 to 0.4	0.2 to 0.4	–
GVF26: GAP31 V8 fragment, 25-26 kDa, residues 1-219 of SEQ ID NO:2	0.2 to 0.4	0.2 to 0.4	–
GAP31: Gelonium Anti-HIV Protein 31 kDa, native full-length, SEQ ID NO:2, from Gelonium multiflorum	–	–	0 to 3
GLF26: GAP31 Lys-C fragment, 25-26 kDa, residues 11-226 of SEQ ID NO:2	0.2 to 0.4	0.2 to 0.4	–
MAP30: Momordica Anti-HIV Protein 30 kDa, native full-length, SEQ ID NO:1, from bitter melon (protein, listed as Momordica charantia) DVNFDLSTATAKTYTKFIEDFRATLPFSHKVYDIPLLYSTISDSRRFILLDLTSYAYETISVAIDVTNVYVVAYRTRDVSYFFKESPPEAYNILFKGTRKITLPYTGNYENLQTAAHKIRENIDLGLPALSSAITTLFYYNAQSAPSALLVLIQTTAEAARFKYIERHVAKYVATNFKPNLAIISLENQWSALSKQIFLAQNQGGKFRNPVDLIKPTGERFQVTNVDSDVVKGNIKLLLNSRASTADENFITTMTLLGESVVN	–	–	0 to 3
MLF25: MAP30 Lys-C fragment, 24-25 kDa, residues 13-232 of SEQ ID NO:1 (protein, listed as Momordica charantia) TYTKFIEDFRATLPFSHKVYDIPLLYSTISDSRRFILLDLTSYAYETISVAIDVTNVYVVAYRTRDVSYFFKESPPEAYNILFKGTRKITLPYTGNYENLQTAAHKIRENIDLGLPALSSAITTLFYYNAQSAPSALLVLIQTTAEAARFKYIERHVAKYVATNFKPNLAIISLENQWSALSKQIFLAQNQGGKFRNPVDLIKPTGERFQVTNVDSDVVK	0.2 to 0.4	0.2 to 0.4	–
MLF21: MAP30 Lys-C fragment, 20-21 kDa, residues 13-195 of SEQ ID NO:1 (protein, listed as Momordica charantia) TYTKFIEDFRATLPFSHKVYDIPLLYSTISDSRRFILLDLTSYAYETISVAIDVTNVYVVAYRTRDVSYFFKESPPEAYNILFKGTRKITLPYTGNYENLQTAAHKIRENIDLGLPALSSAITTLFYYNAQSAPSALLVLIQTTAEAARFKYIERHVAKYVATNFKPNLAIISLENQWSALSK	0.2 to 0.4	0.2 to 0.4	–
MVF25: MAP30 V8 fragment, 24-25 kDa, residues 1-219 of SEQ ID NO:1 (protein, listed as Momordica charantia) DVNFDLSTATAKTYTKFIEDFRATLPFSHKVYDIPLLYSTISDSRRFILLDLTSYAYETISVAIDVTNVYVVAYRTRDVSYFFKESPPEAYNILFKGTRKITLPYTGNYENLQTAAHKIRENIDLGLPALSSAITTLFYYNAQSAPSALLVLIQTTAEAARFKYIERHVAKYVATNFKPNLAIISLENQWSALSKQIFLAQNQGGKFRNPVDLIKPTGE	0.2 to 0.4	0.2 to 0.4	–
MVF21: MAP30 V8 fragment, 20-21 kDa, residues 1-187 of SEQ ID NO:1 (protein, listed as Momordica charantia) DVNFDLSTATAKTYTKFIEDFRATLPFSHKVYDIPLLYSTISDSRRFILLDLTSYAYETISVAIDVTNVYVVAYRTRDVSYFFKESPPEAYNILFKGTRKITLPYTGNYENLQTAAHKIRENIDLGLPALSSAITTLFYYNAQSAPSALLVLIQTTAEAARFKYIERHVAKYVATNFKPNLAIISLE	0.2 to 0.4	0.2 to 0.4	–
